From patent publication US11985975B1, “N-[(2-{[(furan-ylcarbonyl)carbamothioyl]amino }phenyl)carbamothioyl]furan-2-carboxamide as an eco-friendly insecticidal agent against Spodoptera littoralis (boisd.)” (KING FAISAL UNIVERSITY, priority 2023, dated 2024)

Tested on: Spodoptera littoralis larvae (second and fourth instars)
Assay: Insecticidal bioassay screening (castor leaf dip), laboratory strain of cotton leafworm
Format: in vivo
Details: after 72 hrs of treatment, LDP line
Procedure: Five concentrations (200, 100, 50, 25, 12.5 ppm) were designed for this synthetic compound and the reference Diflubenzuron compound as the dynamic ingredients based on ppm via diluting the commercial formulation.
In this experiment, castor leaves are immersed in each of the previously prepared concentrations of the components for 10 seconds and then left to dry for 60 minutes. Larvae of the second and fourth instars of each checked strain are prepared with treated leaves in gauze-covered glass containers for 72 hrs. An untreated control is made in which leaves are dipped in triton x-100 and distilled water only. Then the preserved leaves were removed & fresh, untreated leaves were provided for 72 hours. Three replicates (10 larvae each) were checked for each concentration. Daily inspection was carried out for all treatments and mortality percentages were recorded 3 days (72 hours) after treatment. The average mortality percentage was corrected employing Abbott's formula. The corrected mortality rate for each of the previously synthesized compounds is statistically calculated according to Finney (1970). Through this rate, the corresponding concentration test lines (LDP lines) are assessed.

Compound	Slope (2nd instar larvae)	Slope (4th instar larvae)
O=C(NC(=O)c1c(F)cccc1F)Nc1ccc(Cl)cc1 [Diflubenzuron, reference compound]	1.20 ± 0.46	1.2 ± 0.36
O=C(NC(=S)Nc1ccccc1NC(=S)NC(=O)c1ccco1)c1ccco1 [Compound 2, N-[(2-{[(furan-ylcarbonyl)carbamothioyl]amino}phenyl)carbamothioyl]furan-2-carboxamide]	0.98 ± 0.36	0.99 ± 0.35
